# Measured values taken from PubChem BioAssay AID504834 (National Center for Advancing Translational Sciences (NCATS), 2011).
# The campaign covered roughly 320,000 compounds. About 22,000 (6.9%) were called active. The inconclusive results got no clear call from the source; some entries with a clear call stand among them for comparison. Calls follow the shape of the dose curve; as a rule, active = well fitted inhibition curve with a large enough effect; inconclusive = small, poorly fitted or top-dose-only effect, or another doubt; inactive = no such curve, though single readings can be large or run the other way. Potencies of inconclusive entries are doubtful fits and often do not repeat.
# Assay: Primary qHTS for delayed death inhibitors of the malarial parasite plastid, 96 hour incubation
# Settings: P. falciparum luciferase reporter growth; series mostly up to 28.7 µM; activity change, negative = inhibition: at the top concentration
# Procedure, shortened: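 Compounds incubated with erythrocytes infected by luciferase-expressing P. falciparum (2% hematocrit, 0.05% parasitemia final) for 96 hours, 37 C in 5% CO2. Growth inhibition scored as decreased luciferase luminescence.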
# % is scaled to controls: 0 for no effect and ±100 for the full control effect; potency is read from the fitted curve at half-maximal effect.
Compound,Potency,"activity change, negative = inhibition"
Cn1c(=O)c2c(nc(CN3CCc4ccccc4C3)n2Cc2ccccc2)n(C)c1=O,active: 11.7 µM,–
Oc1ccc(N=Nc2ccc3ccccc3c2)cc1,–,inactive: 354%
COc1ccc(NC(=O)C2C3CCC(O3)C2C(=O)O)c(OC)c1 (centres undefined),"inconclusive: 2.08 µM [inhibitor, single point]",–
CC(C)Nc1nc(NC(C)C)nc(N(C)n2cnnc2)n1,–,inactive: -22.8%
Brc1cc2c(cc1CN1CCc3ccccc3C1)OCO2,"inconclusive: 5.86 µM [inhibitor, partial curve, poor fit]",–
N#CC(C#N)=C1C=C2C=C(N3CCCCC3)CCC2CC1 (centres undefined),–,inactive: 1.36%
Cc1ccc(S(=O)(=O)CCC(=O)N(Cc2nnc(-c3ccc(Cl)cc3)o2)C2CC2)cc1,"inconclusive: 0.294 µM [inhibitor, full curve, poor fit]",–
Cc1cc(-c2ccc(S(=O)(=O)N3CCN(c4ccccc4F)CC3)s2)on1,"inconclusive: 14.7 µM [inhibitor, partial curve, poor fit]",–
CCn1c(Cn2nnc(-c3ccccc3)n2)nnc1SCC(=O)Nc1ccc(N(C)C)cc1,"inconclusive: 0.0415 µM [inhibitor, full curve, poor fit]",–
O=C1CC(N2CCN(S(=O)(=O)c3ccc(Cl)cc3)CC2)C(=O)N1CCc1ccccc1 (centres undefined),"inconclusive: 11.7 µM [inhibitor, partial curve, poor fit]",–
Cc1nc(-c2ccc(F)cc2)c(CC(=O)N(C)CC(=O)Nc2ccc(F)cc2)s1,"inconclusive: 11.7 µM [inhibitor, partial curve, poor fit]",–
COc1ccc(-n2nc3c(c2NC(=O)C24CC5CC(CC(C5)C2)C4)CS(=O)C3)cc1 (centres undefined),"inconclusive: 10.4 µM [inhibitor, single point]",–
O=C(NN1C(=O)c2ccccc2C1=O)C1CC2CCC1C2 (centres undefined),"inconclusive: 18.5 µM [inhibitor, single point]",–
CC(C)N1C(=O)c2ccccc2N(Cc2ccccc2)S1(=O)=O,–,inactive: 3.18%
CN=C(Nc1ccccc1OC)SC1CC(=O)N(c2ccc(C(=O)OC)cc2)C1=O (centres undefined),"inconclusive: 18.5 µM [inhibitor, single point]",–
Cc1ccc(OCCOc2cccc3ccc(C)nc23)c([N+](=O)[O-])c1,"inconclusive: 2.94 µM [inhibitor, full curve]",–
CCCc1cnc(N2CCN(C(=O)c3ccc(OC)cc3)CC2)nc1,"inconclusive: 10.4 µM [inhibitor, partial curve]",–
O=C(Cn1cc([N+](=O)[O-])cn1)Nc1ccn(Cc2c(F)c(F)c(F)c(F)c2F)n1,–,inactive: -16.1%
Cc1nc2ncnn2c(N2CCC(C(=O)NC3CCCC3)CC2)c1Cc1ccccc1,–,inactive: 44.7%
COc1ccc(OC)c(COC(=O)c2cc([N+](=O)[O-])ccc2N2CCOCC2)c1,active: 2.94 µM,–
CC(=O)N1C(=O)N(C)C2C1N(C)C(=O)N2C(C)=O (centres undefined),"inconclusive: 18.5 µM [inhibitor, single point]",–
CCCN1CCN(c2ccc([N+](=O)[O-])cc2C#N)CC1,–,inactive: 21.4%

Compound,Potency,"activity change, negative = inhibition"
CCn1c(SCC(=O)Nc2cccc(C)c2)nc2nc3c(cc2c1=O)COC(C)(C)C3,"inconclusive: 1.04 µM [inhibitor, partial curve]",–
COc1ccc(C2=Nc3cccc4cccc(c34)N2)cc1,"inconclusive: 3.29 µM [inhibitor, full curve, poor fit]",–
CCCCCSc1nc2c(cnn2-c2ccccc2)c(=O)[nH]1,–,inactive: 0.974%
CCCCn1cnc2c(c1=O)c1nc3ccccc3nc1n2Cc1ccc2c(c1)OCO2,"inconclusive: 1.65 µM [inhibitor, full curve, poor fit]",–
Cc1nn(C2CCCCC2)c(N)c1-c1ccccc1,"inconclusive: 4.15 µM [inhibitor, single point]",–
CC(C)CCNC(=O)CN1C(=O)NC(c2ccccc2)(c2ccccc2)C1=O,"inconclusive: 18.5 µM [inhibitor, single point]",–
Cc1cc(C)cc(C(=O)Nc2cc3c4c(c2)CC(=O)N4CCC3)c1,–,inactive: 52.8%
NS(=O)(=O)c1ccc(N/N=C/c2ccc[nH]2)c([N+](=O)[O-])c1,"inconclusive: 11.7 µM [inhibitor, single point]",–
Cc1ccc(NC(=O)COC(=O)CCc2ccccc2)c(Cl)c1,–,inactive: 34.2%
Cc1cccc(CCNS(=O)(=O)c2ccc3c(c2)NC(=O)CO3)c1,"inconclusive: 18.5 µM [inhibitor, single point]",–
Cc1ccc(F)c(Oc2cc(NN3CCCCC3)c([N+](=O)[O-])cc2[N+](=O)[O-])c1,active: 11.7 µM,–
COc1ccc(-n2c(C)cc(C(=O)Cn3nc(C(=O)O)c4ccccc4c3=O)c2C)cc1,"inconclusive: 18.5 µM [inhibitor, single point]",–
CCc1cccc(N(C(=O)c2csnn2)C(C(=O)NC2CCCCC2)c2cccnc2)c1 (centres undefined),"inconclusive: 3.7 µM [inhibitor, partial curve]",–
CCC(=O)Nc1ccc(Cl)c(NC(=O)c2ccccc2OC)c1,–,inactive: 18.1%
COc1ccccc1NC(=O)CSc1n[nH]c(Cc2ccccc2)n1,"inconclusive: 14.7 µM [inhibitor, single point]",–
Cc1cc2c(ncn2C)c(NS(=O)(=O)c2ccc(Cl)cc2)c1C,–,inactive: -2.13%
C/C=C\C=C/C(=O)Nc1cccc(C2=NOC3(C2)C[C@H](C(N)=O)N(C(=O)Cc2ccc([N+](=O)[O-])cc2)C3)c1 (some centres undefined),"inconclusive: 16.5 µM [inhibitor, single point]",–
COc1ccc(C(=O)NCC(=O)OCC(=O)Nc2ccc(C)c(S(=O)(=O)N(C)C)c2)cc1OC,–,inactive: -13.5%
Cc1cc(SCC(=O)c2ccc3c(c2)OCO3)nc2ccccc12,"inconclusive: 13.1 µM [inhibitor, single point]",–
CCC1(c2ccccc2)NC(=O)N(CC(=O)N(CC(=O)Nc2ccccc2C(F)(F)F)Cc2ccco2)C1=O (centres undefined),"inconclusive: 14.7 µM [inhibitor, single point]",–
COc1ccc(/C(N)=N/OC(=O)c2cccs2)cc1OC,–,inactive: -0.303%
COc1ccc(OC)c(NC(=O)C(CC(C)C)NC(=O)C2CCCCC2)c1 (centres undefined),"inconclusive: 16.5 µM [inhibitor, single point]",–

# Structural class: the entries above containing a COOH group
Compound,Potency,"activity change, negative = inhibition"
COc1ccc(NC(=O)C2C3CCC(O3)C2C(=O)O)c(OC)c1 (centres undefined),"inconclusive: 2.08 µM [inhibitor, single point]",–
COc1ccc(-n2c(C)cc(C(=O)Cn3nc(C(=O)O)c4ccccc4c3=O)c2C)cc1,"inconclusive: 18.5 µM [inhibitor, single point]",–
